No constants are given. Whether binding was seen depends on the method and setting. In cells and extracts the contact can be indirect. Some binding calls cover weakened binding; strength is not graded here.
Biological target: WT KHNYN-GFP (human) (UniProt O15037)
Assay: co-IP; HeLa cells stably expressing KHNYN-GFP proteins; lysis in 0.5% NP-40, 150 mM KCl, 10 mM Hepes pH 7.5, 3 mM MgCl2; post-nuclear supernatant precipitated with anti-GFP and Protein G Dynabeads; Western blot

Chains of the proteins cited; added tags and fusions are not shown.
UniProt O15037: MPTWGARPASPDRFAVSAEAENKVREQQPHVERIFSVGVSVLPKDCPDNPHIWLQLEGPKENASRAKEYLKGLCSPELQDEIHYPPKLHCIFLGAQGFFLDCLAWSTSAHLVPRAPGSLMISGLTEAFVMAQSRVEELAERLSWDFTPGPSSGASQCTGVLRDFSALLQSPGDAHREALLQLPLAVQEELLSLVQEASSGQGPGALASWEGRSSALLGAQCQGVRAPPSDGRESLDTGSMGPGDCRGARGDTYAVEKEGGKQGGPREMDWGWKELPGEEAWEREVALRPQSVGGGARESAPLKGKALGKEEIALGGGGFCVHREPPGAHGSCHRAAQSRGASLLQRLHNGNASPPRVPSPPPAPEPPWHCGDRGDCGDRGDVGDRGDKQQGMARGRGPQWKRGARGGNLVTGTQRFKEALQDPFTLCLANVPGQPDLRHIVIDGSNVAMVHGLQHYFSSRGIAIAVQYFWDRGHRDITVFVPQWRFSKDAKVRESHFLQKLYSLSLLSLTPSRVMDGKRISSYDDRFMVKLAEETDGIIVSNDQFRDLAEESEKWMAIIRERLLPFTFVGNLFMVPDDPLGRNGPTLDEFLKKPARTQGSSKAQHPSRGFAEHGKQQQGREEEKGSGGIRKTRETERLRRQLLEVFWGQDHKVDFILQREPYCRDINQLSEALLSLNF
UniProt Q7Z2W4: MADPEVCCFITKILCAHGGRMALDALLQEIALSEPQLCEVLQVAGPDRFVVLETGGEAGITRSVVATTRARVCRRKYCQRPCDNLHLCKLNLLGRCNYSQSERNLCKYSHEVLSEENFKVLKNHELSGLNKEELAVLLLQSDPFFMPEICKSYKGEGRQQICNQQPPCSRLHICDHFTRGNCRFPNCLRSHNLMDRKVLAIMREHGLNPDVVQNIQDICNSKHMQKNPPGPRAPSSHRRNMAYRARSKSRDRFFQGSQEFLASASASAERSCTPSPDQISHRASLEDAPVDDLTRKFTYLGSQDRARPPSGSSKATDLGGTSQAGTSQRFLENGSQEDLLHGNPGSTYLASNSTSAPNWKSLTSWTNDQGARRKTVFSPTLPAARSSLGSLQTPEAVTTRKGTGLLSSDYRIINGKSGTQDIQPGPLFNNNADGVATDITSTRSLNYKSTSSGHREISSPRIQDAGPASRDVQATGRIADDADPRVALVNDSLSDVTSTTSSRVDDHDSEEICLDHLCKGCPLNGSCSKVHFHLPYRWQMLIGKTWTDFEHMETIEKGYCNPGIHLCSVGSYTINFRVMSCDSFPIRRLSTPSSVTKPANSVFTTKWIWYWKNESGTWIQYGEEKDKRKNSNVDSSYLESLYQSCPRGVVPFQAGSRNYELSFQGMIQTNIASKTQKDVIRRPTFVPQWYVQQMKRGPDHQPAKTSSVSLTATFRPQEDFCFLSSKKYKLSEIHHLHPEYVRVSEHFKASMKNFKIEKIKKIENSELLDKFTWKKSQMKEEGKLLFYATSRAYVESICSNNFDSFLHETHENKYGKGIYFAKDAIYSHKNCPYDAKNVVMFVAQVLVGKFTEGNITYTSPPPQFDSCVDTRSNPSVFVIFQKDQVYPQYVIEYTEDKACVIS

For “Zinc finger antiviral protein (ZAP) (from UniProt Q7Z2W4 1-902)”, the binding was “binds”.

— publication PMC11997328
